Measurements published in PubChem BioAssay AID504834 (National Center for Advancing Translational Sciences (NCATS), 2011).
Out of some 320,000 compounds screened, about 22,000 (6.9%) were called active. This list was built around the results that the source calls inconclusive (neither active nor inactive); the mix of calls is not that of the screen. The call rests on the fitted dose curve; in most records, active means well fitted inhibition curve with a large enough effect; inconclusive means small, poorly fitted or top-dose-only effect, or another doubt; inactive means no such curve, though single readings can be large or run the other way. Where the call is inconclusive, the potency comes from a doubtful curve fit. Where a SMILES comes first, the peptide text is derived from it. The star is where a group is joined. Boc = CC(C)(C)OC(=O)*

Experiment: Primary qHTS for delayed death inhibitors of the malarial parasite plastid, 96 hour incubation
Conditions: P. falciparum luciferase reporter growth; series mostly up to 28.7 µM
How it was run: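 Two-generation exposure (96 h) targets delayed-death phenotype. Reporter parasites carrying integrated firefly luciferase, in red cells at 2% hematocrit and 0.05% parasitemia final, kept at 37 C, 5% CO2; luminescence loss indicates inhibition.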
Potency means the concentration at half of the fitted maximal effect.

**Q.** With CCCc1cc(=O)n2[nH]c(Cc3ccccc3)nc2n1 as the molecule, how does the Potency read?
**A.** inconclusive: 7.38 µM [inhibitor, partial curve, poor fit]

**Q.** For Cc1cccc(N2CCN(c3ccc(NC(=O)/C=C\C(=O)O)cc3)CC2)c1, which Potency is on record?
**A.** inconclusive: 2.94 µM [inhibitor, partial curve, poor fit]

**Q.** For N#C/C(=C\c1ccc(N2CCOCC2)c([N+](=O)[O-])c1)c1nc2ccccc2[nH]1, which Potency is on record?
**A.** inconclusive: 13.1 µM [inhibitor, single point]

**Q.** With CC1CCCC(C)N1CCCNC(=O)c1nn(C)c2c1CSc1ccccc1-2 (configuration not stated) as the molecule, how does the Potency read?
**A.** inconclusive: 18.5 µM [inhibitor, single point]

**Q.** For CC(NC(=O)OC(C)(C)C)C(=O)N1CCCC1C(=O)NC(Cc1ccccc1)C(N)=O (stereo not drawn) (Boc-Ala-Pro-Phe-NH2; configuration not given here), which Potency is on record?
**A.** inconclusive: 18.5 µM [inhibitor, single point]

**Q.** Which Potency does the source give for O=C(NCCCN1CCOCC1)c1cc(-c2ccccc2)nc2ccccc12 here?
**A.** inactive

**Q.** For CCOc1ccc(C(=O)CCC(=O)Nc2cccc(S(=O)(=O)N3CCCCC3)c2)cc1, which Potency is on record?
**A.** inconclusive: 10.4 µM [inhibitor, single point]

**Q.** Which Potency does the source give for COCCNC(=O)c1ccccc1NC(=O)C1COc2ccccc2O1 (configuration not stated) here?
**A.** inconclusive: 11.7 µM [inhibitor, partial curve, poor fit]

**Q.** With O=C(N/N=C/c1ccncc1)c1cc(Br)ccc1OCc1ccccc1 as the molecule, how does the Potency read?
**A.** active: 2.94 µM

**Q.** With COc1cccc(/C=C2\Sc3ccc(C(=O)NCC4CCCO4)cc3N(C)C2=O)c1 (configuration not stated) as the molecule, how does the Potency read?
**A.** inactive

**Q.** Which Potency does the source give for CCCc1cc(=O)[nH]c(SCC(=O)OCc2ccccc2)n1 here?
**A.** inconclusive: 18.5 µM [inhibitor, single point]

**Q.** Which Potency does the source give for COc1ccc([C@@H]2[C@@H]3C(=O)N(C(C)(C)C)C(=O)[C@@H]3[C@]3(Cc4ccc(Cl)cc4)C(=O)N(c4ccc(Br)cc4)C(=O)N23)cc1 here?
**A.** inconclusive: 3.29 µM [inhibitor, full curve, poor fit]

**Q.** For Cc1n[nH]c(C)c1S(=O)(=O)N1CCN(S(=O)(=O)c2cccc(F)c2)CC1, which Potency is on record?
**A.** inactive

**Q.** For CCOC(=O)CSc1nnc([C@H](CC(C)C)NC(=O)OC(C)(C)C)o1, which Potency is on record?
**A.** inconclusive: 11.7 µM [inhibitor, partial curve, poor fit]

**Q.** For CCOc1ccccc1NC(=O)c1ccccc1-c1nc(-c2ccccc2OC)no1, which Potency is on record?
**A.** inconclusive: 18.5 µM [inhibitor, single point]

**Q.** Which Potency does the source give for COc1ccc(-c2noc(N3CCC(C(=O)Nc4ccc(F)cc4)CC3)n2)cc1 here?
**A.** inactive

**Q.** For CCc1c(C)c(C#N)c2nc3ccccc3n2c1Nc1c(C)n(C)n(-c2ccccc2)c1=O, which Potency is on record?
**A.** inconclusive: 1.85 µM [inhibitor, partial curve, poor fit]

**Q.** Which Potency does the source give for COc1ccc(Cl)cc1S(=O)(=O)Nc1cccc(C(=O)O)c1 here?
**A.** active: 10.4 µM

**Q.** With CC1CCCCN1C(=O)c1cc2ccccc2cc1O (configuration not stated) as the molecule, how does the Potency read?
**A.** inactive

**Q.** Which Potency does the source give for O=C(CCc1ccccc1)Nc1cccc([N+](=O)[O-])c1 here?
**A.** inactive

**Q.** Which Potency does the source give for CCOC(=O)C1CCCN(C(=O)CCNC(=O)Cn2ccc3ccccc3c2=O)C1 (configuration not stated) here?
**A.** inconclusive: 9.28 µM [inhibitor, partial curve]

**Q.** With Cn1c(NC(=O)c2cc(Br)ccc2Cl)cc(=O)n(C)c1=O as the molecule, how does the Potency read?
**A.** inconclusive: 3.29 µM [inhibitor, partial curve, poor fit]

**Q.** For Oc1oc(-c2cccc3ccccc23)nc1/C=N/c1nccs1, which Potency is on record?
**A.** inactive

**Q.** Which Potency does the source give for Cc1ccc2oc(=O)cc(CN3CCN(Cc4ccccc4)CC3)c2c1 here?
**A.** inconclusive: 10.4 µM [inhibitor, single point]

**Q.** Which Potency does the source give for COC(=O)c1cc(C)nc(Sc2ccccc2N)n1 here?
**A.** inconclusive: 18.5 µM [inhibitor, single point]

**Q.** For COc1ccccc1NC(=S)N1CCN(c2ccc(F)cc2)CC1, which Potency is on record?
**A.** inconclusive: 18.5 µM [inhibitor, partial curve, poor fit]

**Q.** Which Potency does the source give for COc1ccc(S(=O)(=O)N2CCCC2CNC(=O)C(=O)Nc2ccc(F)cc2)cc1 (configuration not stated) here?
**A.** inconclusive: 16.5 µM [inhibitor, single point]

**Q.** With O=[N+]([O-])c1cc2c(cc1[N+](=O)[O-])OCCOCCOCCOCCO2 as the molecule, how does the Potency read?
**A.** inactive

**Q.** Which Potency does the source give for Fc1ccc(-c2cn3cc(C(F)(F)F)cc(Cl)c3n2)cc1 here?
**A.** inactive

**Q.** Which Potency does the source give for Nc1nc(Nc2ccc(Cl)cc2)nc2ccccc12 here?
**A.** inconclusive: 1.65 µM [inhibitor, full curve, poor fit]

**Q.** For O=C(Nc1nnc(S(=O)(=O)N2CCCCC2)s1)c1cccc(Br)c1, which Potency is on record?
**A.** inactive

**Q.** For O=c1cc(CN2CCc3ccccc32)c2ccc(O)cc2o1, which Potency is on record?
**A.** inconclusive: 13.1 µM [inhibitor, partial curve]

**Q.** Which Potency does the source give for CC(=O)c1ccc(OCC(C)Oc2ccc(C#N)cc2)cc1 (configuration not stated) here?
**A.** inactive

**Q.** With COc1ccc(NC(=O)C2CCCCN2S(=O)(=O)c2ccc(F)cc2)cc1 (configuration not stated) as the molecule, how does the Potency read?
**A.** active: 0.586 µM

**Q.** With C/C(=N/NC(=O)CNc1ccc(Cl)cc1C)c1ccc(C)cc1 as the molecule, how does the Potency read?
**A.** inconclusive: 5.86 µM [inhibitor, partial curve]

**Q.** Which Potency does the source give for COc1ccc(/C=C(/C(=O)NCc2ccccc2)c2ccccc2)cc1 here?
**A.** inactive

**Q.** With C/C(=N\OC(=O)NC1CCCCC1)c1sc(-c2ccccc2)nc1C as the molecule, how does the Potency read?
**A.** inconclusive: 2.08 µM [inhibitor, full curve]

**Q.** Which Potency does the source give for COc1ccc(-c2c[n+](CC(=O)N3c4ccccc4Sc4ccccc43)c3n2CCC3)cc1 here?
**A.** active: 1.65 µM

**Q.** With Cc1nc(N2CCN(c3ccc(Cl)cc3)CC2)[nH]c(=O)c1C as the molecule, how does the Potency read?
**A.** inconclusive: 0.522 µM [inhibitor, full curve, poor fit]

**Q.** Which Potency does the source give for CN(C)c1ccc(C=NCCC2(O)CCOC(C)(C)C2)cc1 (configuration not stated) here?
**A.** inactive

**Q.** For COc1ccc(C(=O)N2CCN(Cc3ccccc3)CC2)cc1[N+](=O)[O-], which Potency is on record?
**A.** inconclusive: 14.7 µM [inhibitor, single point]

**Q.** With CCN1C(=O)/C(=C/C=C2/Sc3ccc4ccccc4c3N2CCO)SC1=S as the molecule, how does the Potency read?
**A.** inconclusive: 14.7 µM [inhibitor, single point]

**Q.** For O=C(CNC(=O)OCc1ccccc1)NCC(=O)N1CCCC1C(=O)OCc1ccccc1 (configuration not stated), which Potency is on record?
**A.** inactive

**Q.** With CC(C)NS(=O)(=O)c1ccc(NC(=S)NC(=O)c2cccc([N+](=O)[O-])c2)cc1 as the molecule, how does the Potency read?
**A.** active: 13.1 µM

**Q.** Which Potency does the source give for Cc1ccc(O)c(CNc2nc3ccccc3n2C)c1 here?
**A.** inconclusive: 18.5 µM [inhibitor, single point]

**Q.** Which Potency does the source give for COc1ccc(C(=O)NC(C(=O)NCc2ccccc2OC)C(C)C)cc1 (configuration not stated) here?
**A.** inconclusive: 10.4 µM [inhibitor, single point]

**Q.** With CCCCC(Sc1nc(C)c(Cc2ccccc2)c(=O)[nH]1)C(=O)O (configuration not stated) as the molecule, how does the Potency read?
**A.** inconclusive: 6.57 µM [inhibitor, partial curve, poor fit]

**Q.** For COc1ccc(CC(=O)NCC2CCCN(Cc3ccc(F)c(OC)c3)C2)cc1 (configuration not stated), which Potency is on record?
**A.** inconclusive: 18.5 µM [inhibitor, single point]

**Q.** With Cc1cccc(CSc2nc3nc(C)cc(C)n3n2)c1 as the molecule, how does the Potency read?
**A.** inactive

**Q.** Which Potency does the source give for CC(C)(C)n1nnnc1C(c1cccs1)N(Cc1ccc(Cl)cc1)CC1CCCO1 (configuration not stated) here?
**A.** inconclusive: 6.57 µM [inhibitor, partial curve, poor fit]

**Q.** Which Potency does the source give for O=S(=O)(c1ccc(F)cc1)N1CCN(Cc2ccccn2)CC1 here?
**A.** inconclusive: 10.4 µM [inhibitor, single point]

**Q.** For O=C(NCCc1ccccc1)C1CCN(Cc2cccc3ccccc23)CC1, which Potency is on record?
**A.** inconclusive: 18.5 µM [inhibitor, single point]

**Q.** With C/C(=N\Nc1nc(-c2ccccn2)nc2ccccc12)c1ccc(F)cc1 as the molecule, how does the Potency read?
**A.** inactive

**Q.** For COCCN(CC(=O)Nc1cccc(C)c1C)C(=O)c1cc2c(s1)CCC2, which Potency is on record?
**A.** inconclusive: 18.5 µM [inhibitor, single point]

**Q.** With O=C(NCCc1ccccc1)C1CCN(Cc2ccccc2F)CC1 as the molecule, how does the Potency read?
**A.** inactive

**Q.** For Cn1c(=O)c2c(nc(N3CCN(c4ccccn4)CC3)n2Cc2ccccc2Cl)n(C)c1=O, which Potency is on record?
**A.** active: 13.1 µM

**Q.** With CCCCN(C)C(=O)c1nc2ccccn2c1CN1CCC[C@H]1CO as the molecule, how does the Potency read?
**A.** inconclusive: 10.4 µM [inhibitor, single point]

**Q.** For CC(C)(C)c1nc2ccc(NS(=O)(=O)c3ccc(F)c(F)c3F)cc2[nH]1, which Potency is on record?
**A.** inactive

**Q.** Which Potency does the source give for CCC(=O)Nc1nc(C)c(-c2csc(Nc3ccccn3)n2)s1 here?
**A.** inactive

**Q.** With Cc1ccc(CN2CCN(CC(=O)NCc3ccccc3)CC2)cc1 as the molecule, how does the Potency read?
**A.** inactive

**Q.** Which Potency does the source give for c1ccc(CNc2ncnc3nc[nH]c23)cc1 here?
**A.** inconclusive: 0.0083 µM [inhibitor, full curve, poor fit]

**Q.** Which Potency does the source give for Cc1ccc(CNC(=O)COc2cccc3c2OC(C)(C)C3)cc1 here?
**A.** inactive

**Q.** For COc1ccc2c(c1)S/C(=C\C(=O)c1ccncc1)N2C, which Potency is on record?
**A.** inactive

**Q.** Which Potency does the source give for O=C(Nc1cccc(Cl)c1)c1cnccn1 here?
**A.** inactive

**Q.** With O=C(COc1cc(F)ccc1[N+](=O)[O-])N1N=C(c2cccs2)CC1c1ccco1 (configuration not stated) as the molecule, how does the Potency read?
**A.** inconclusive: 11.7 µM [inhibitor, single point]

**Q.** Which Potency does the source give for COc1cc(/C=C/C(=O)NCC2CCCCC2)cc(OC)c1OC here?
**A.** inconclusive: 11.7 µM [inhibitor, single point]

**Q.** Which Potency does the source give for COc1ccc(CCN2C(=S)N(c3ccc(Cl)cc3)C(=O)C2CC(N)=O)cc1OC (configuration not stated) here?
**A.** active: 11.7 µM

**Q.** For O=c1[nH]c2cc3ccccc3cc2nc1C(F)(F)F, which Potency is on record?
**A.** inactive

**Q.** For Cc1ccc(NC(=O)Nc2ccccc2F)cc1S(=O)(=O)N1CCOCC1, which Potency is on record?
**A.** inconclusive: 5.22 µM [inhibitor, partial curve, poor fit]

**Q.** With Cc1ccc(S(=O)(=O)NNC(=O)CCC(=O)Nc2ccc(C)cc2C)cc1 as the molecule, how does the Potency read?
**A.** inconclusive: 18.5 µM [inhibitor, single point]

**Q.** For CCCCN1CN(Cc2ccccc2)CNC1=S, which Potency is on record?
**A.** active: 9.28 µM

**Q.** With O=CNCCCc1nc2ccccc2n1Cc1ccccc1 as the molecule, how does the Potency read?
**A.** inconclusive: 10.4 µM [inhibitor, partial curve, poor fit]
